From patent US12018026B1, “Pyrido[4,3-e][1,2,3]triazolo[1,5-a]pyrimidine as CK2 inhibitors” (KING FAISAL UNIVERSITY, priority 2024, dated 2024)

Key:
Assay type in all cases: cell-based
[1] = tested on: PC3 (prostate); experiment: In vitro cytotoxic activity MTT assay, PC3; details: Homo sapiens; cells exposed for 96 hours; read-out: Cytotoxicity activity IC50, PC3 (prostate)
Description: (§1) Compounds 1-16 were screened for their in vitro cytotoxic activity utilizing a 3-(4,5-dimethyl-thiazol-2-yl)-2,5-diphenyltetrazolium bromide (MTT) assay against selected cancer human cell lines consisting of PC3 (prostate), HCT116 (colon), A375 (melanoma), H1299 (lung), MIAPaCa-2 (pancreas), HL60 (leukemia), MCF7 (breast), MDA-MB-231 (breast) (T. Mosmann, J. Immunol. Meth., 1983, 65, 55-63). The cells were cultured at 37° C. in RMPI1640 medium supplemented with 10% fetal bovine serum, 50 IU/mL penicillin, and 50 μg/mL streptomycin in a 5% CO2 incubator. All cells were sub-cultured 3 times/week by trypsinisation. Viable cells were seeded and allowed to adhere for 12 hours before a test drug was added in 96-well plates at an initial density of 1.0×10^5 cells/mL. Tumor cell lines were separately exposed to various concentrations of the tested compounds followed by incubation at a temperature of 37° C. during 96 hours inside a medium of fresh RMPI 1640. Cells were subsequently incubated at 37° C. using MTT at 0.5 mg/mL during 4 hours. After removal of supernatant, formazan crystals were dissolved in isopropanol and the optical density was measured at 570 nm. CX-4945 was used as a positive control.

[2] = tested on: HCT116 (colon); experiment: In vitro cytotoxic activity MTT assay, HCT116; details: Homo sapiens, HCT-116; cells exposed for 96 hours; read-out: Cytotoxicity activity IC50, HCT116 (colon)
Description: as §1

[3] = tested on: A375 (melanoma); experiment: In vitro cytotoxic activity MTT assay, A375; details: Homo sapiens, A-375; cells exposed for 96 hours; read-out: Cytotoxicity activity IC50, A375 (melanoma)
Description: as §1

[4] = tested on: H1299 (lung); experiment: In vitro cytotoxic activity MTT assay, H1299; details: Homo sapiens, NCI-H1299; cells exposed for 96 hours; read-out: Cytotoxicity activity IC50, H1299 (lung)
Description: as §1

[5] = tested on: MIAPaCa-2 (pancreas); experiment: In vitro cytotoxic activity MTT assay, MIAPaCa-2; details: Homo sapiens, MIA PaCa-2; cells exposed for 96 hours; read-out: Cytotoxicity activity IC50, MIAPaCa-2 (pancreas)
Description: as §1

[6] = tested on: HL60 (leukemia); experiment: In vitro cytotoxic activity MTT assay, HL60; details: Homo sapiens, HL-60; cells exposed for 96 hours; read-out: Cytotoxicity activity IC50, HL60 (leukemia)
Description: as §1

[7] = tested on: MCF7 (breast); experiment: In vitro cytotoxic activity MTT assay, MCF7; details: Homo sapiens, cells exposed for 96 hours, read-out: Cytotoxicity activity IC50, MCF7 (breast)
Description: as §1

[8] = tested on: MDA-MB-231 (breast); experiment: In vitro cytotoxic activity MTT assay, MDA-MB-231; details: Homo sapiens, cells exposed for 96 hours, read-out: Cytotoxicity activity IC50, MDA-MB-231 (breast)
Description: as §1

SMILES: O=C(O)c1ccc2c(c1)nc(Nc1cccc(Cl)c1)c1ccncc12 [CX-4945, reference compound]
- IC50 [1]: 2 µM
- IC50 [2]: 2.3 µM
- IC50 [3]: 4.1 µM
- IC50 [4]: 2.3 µM
- IC50 [5]: 1 µM
- IC50 [6]: 3.7 µM
- IC50 [7]: 9.1 µM
- IC50 [8]: 6.2 µM
